Where a chain is given by its changes, count along the chain named. No constants are given. Whether binding was seen depends on the method and setting. Binding seen in cells or lysates may run through a third protein. Some entries that bind do so weakly or less than the wild type.
T1: Gα13(135) (mTurquoise2 between amino acids 135 and 136) (mouse) (UniProt P27601)
T1 sequence: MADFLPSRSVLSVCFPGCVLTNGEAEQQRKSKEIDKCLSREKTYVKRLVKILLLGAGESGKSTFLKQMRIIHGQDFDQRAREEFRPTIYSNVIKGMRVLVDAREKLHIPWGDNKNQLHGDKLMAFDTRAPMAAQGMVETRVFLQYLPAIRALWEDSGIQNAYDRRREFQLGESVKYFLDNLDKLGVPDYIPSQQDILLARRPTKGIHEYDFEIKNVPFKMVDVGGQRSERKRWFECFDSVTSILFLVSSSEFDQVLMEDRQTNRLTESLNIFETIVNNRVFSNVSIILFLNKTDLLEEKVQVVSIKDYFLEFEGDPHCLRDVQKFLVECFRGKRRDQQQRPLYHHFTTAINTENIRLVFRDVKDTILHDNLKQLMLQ

Protein sequences, listed by entry. Tags and fused reporters are not part of them.
UniProt Q03113: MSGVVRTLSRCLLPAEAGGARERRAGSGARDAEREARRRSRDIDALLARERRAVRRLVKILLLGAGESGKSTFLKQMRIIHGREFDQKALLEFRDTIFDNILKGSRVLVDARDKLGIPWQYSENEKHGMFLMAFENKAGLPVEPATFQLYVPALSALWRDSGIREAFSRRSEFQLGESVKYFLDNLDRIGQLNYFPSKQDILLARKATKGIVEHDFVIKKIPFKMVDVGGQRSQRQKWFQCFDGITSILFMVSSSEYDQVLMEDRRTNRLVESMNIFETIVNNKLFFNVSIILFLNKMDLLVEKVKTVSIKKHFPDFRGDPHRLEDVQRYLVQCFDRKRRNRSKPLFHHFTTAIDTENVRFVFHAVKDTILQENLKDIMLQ
UniProt P10824: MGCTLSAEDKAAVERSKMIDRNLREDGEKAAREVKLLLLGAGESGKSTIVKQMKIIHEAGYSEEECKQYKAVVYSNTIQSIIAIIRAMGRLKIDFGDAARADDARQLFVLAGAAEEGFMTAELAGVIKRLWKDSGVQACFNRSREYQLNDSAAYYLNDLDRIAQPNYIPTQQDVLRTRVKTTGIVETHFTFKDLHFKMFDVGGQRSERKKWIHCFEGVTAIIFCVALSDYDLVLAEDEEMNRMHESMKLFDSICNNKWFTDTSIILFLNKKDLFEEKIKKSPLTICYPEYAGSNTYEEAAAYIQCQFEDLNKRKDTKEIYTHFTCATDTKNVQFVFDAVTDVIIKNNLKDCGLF
UniProt O15085: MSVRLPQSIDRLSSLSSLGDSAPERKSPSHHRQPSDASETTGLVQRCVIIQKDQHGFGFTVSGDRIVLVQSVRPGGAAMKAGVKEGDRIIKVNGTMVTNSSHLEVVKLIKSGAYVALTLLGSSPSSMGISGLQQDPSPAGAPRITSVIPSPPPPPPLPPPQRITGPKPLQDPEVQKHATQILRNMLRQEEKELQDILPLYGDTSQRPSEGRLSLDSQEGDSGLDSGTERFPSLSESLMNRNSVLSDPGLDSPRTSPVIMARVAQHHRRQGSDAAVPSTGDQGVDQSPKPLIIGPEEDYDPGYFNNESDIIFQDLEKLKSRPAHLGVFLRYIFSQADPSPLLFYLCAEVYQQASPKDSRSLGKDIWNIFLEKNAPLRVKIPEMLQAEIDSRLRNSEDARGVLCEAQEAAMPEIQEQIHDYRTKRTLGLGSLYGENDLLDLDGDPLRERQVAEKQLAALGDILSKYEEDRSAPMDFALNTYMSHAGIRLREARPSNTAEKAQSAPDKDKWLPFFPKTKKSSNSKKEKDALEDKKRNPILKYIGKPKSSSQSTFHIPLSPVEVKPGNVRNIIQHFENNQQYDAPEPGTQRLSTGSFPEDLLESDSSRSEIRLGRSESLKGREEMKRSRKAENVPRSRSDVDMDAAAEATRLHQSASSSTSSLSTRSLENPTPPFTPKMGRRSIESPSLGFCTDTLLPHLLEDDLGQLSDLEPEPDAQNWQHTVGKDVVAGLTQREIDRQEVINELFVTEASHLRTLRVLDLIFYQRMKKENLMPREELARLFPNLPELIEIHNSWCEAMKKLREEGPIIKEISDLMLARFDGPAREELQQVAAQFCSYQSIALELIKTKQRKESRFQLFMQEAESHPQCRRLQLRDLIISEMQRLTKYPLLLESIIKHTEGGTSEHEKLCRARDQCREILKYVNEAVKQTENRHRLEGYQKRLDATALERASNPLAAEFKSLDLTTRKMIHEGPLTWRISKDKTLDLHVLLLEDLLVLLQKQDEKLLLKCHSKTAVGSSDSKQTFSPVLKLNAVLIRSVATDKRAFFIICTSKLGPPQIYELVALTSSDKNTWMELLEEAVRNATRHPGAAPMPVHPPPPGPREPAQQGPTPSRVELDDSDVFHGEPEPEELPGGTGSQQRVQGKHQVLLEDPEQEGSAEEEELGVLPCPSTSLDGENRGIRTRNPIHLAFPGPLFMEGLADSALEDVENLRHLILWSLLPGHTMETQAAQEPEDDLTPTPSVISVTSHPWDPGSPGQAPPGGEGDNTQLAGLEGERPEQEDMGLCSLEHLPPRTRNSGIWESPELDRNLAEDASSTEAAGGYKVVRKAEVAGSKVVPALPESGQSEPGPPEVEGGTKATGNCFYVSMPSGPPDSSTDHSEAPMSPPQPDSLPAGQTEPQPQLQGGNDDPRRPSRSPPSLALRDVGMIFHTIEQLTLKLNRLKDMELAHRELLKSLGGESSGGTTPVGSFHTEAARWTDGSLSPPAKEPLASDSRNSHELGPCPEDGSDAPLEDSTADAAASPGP

T2: Gα13(135)R128A (mouse, UniProt P27601 1-377, R128A)
T2 construct: Gα13, mouse; also called Gα13-R128A; source: HEK293T, transfected, in intact cells
T2 sequence (looked up): T1 sequence with R128A

T3: Gα13-mTurq2 (mTurquoise2 between amino acids 127 and 128) (mouse) (UniProt P27601)
T3 sequence: T1 sequence

B1: eYFP-human LARG (leukemia-associated RhoGEF) (natural protein, UniProt Q9NZN5 1-1544, looked up)
chain: MSGTQSTITDRFPLKKPIRHGSILNRESPTDKKQKVERIASHDFDPTDSSSKKTKSSSEESRSEIYGLVQRCVIIQKDDNGFGLTVSGDNPVFVQSVKEDGAAMRAGVQTGDRIIKVNGTLVTHSNHLEVVKLIKSGSYVALTVQGRPPGSPQIPLADSEVEPSVIGHMSPIMTSPHSPGASGNMERITSPVLMGEENNVVHNQKVEILRKMLQKEQERLQLLQEDYNRTPAQRLLKEIQEAKKHIPQLQEQLSKATGSAQDGAVVTPSRPLGDTLTVSEAETDPGDVLGRTDCSSGDASRPSSDNADSPKSGPKERIYLEENPEKSETIQDTDTQSLVGSPSTRIAPHIIGAEDDDFGTEHEQINGQCSCFQSIELLKSRPAHLAVFLHHVVSQFDPATLLCYLYSDLYKHTNSKETRRIFLEFHQFFLDRSAHLKVSVPDEMSADLEKRRPELIPEDLHRHYIQTMQERVHPEVQRHLEDFRQKRSMGLTLAESELTKLDAERDKDRLTLEKERTCAEQIVAKIEEVLMTAQAVEEDKSSTMQYVILMYMKHLGVKVKEPRNLEHKRGRIGFLPKIKQSMKKDKEGEEKGKRRGFPSILGPPRRPSRHDNSAIGRAMELQKARHPKHLSTPSSVSPEPQDSAKLRQSGLANEGTDAGYLPANSMSSVASGASFSQEGGKENDTGSKQVGETSAPGDTLDGTPRTLNTVFDFPPPPLDQVQEEECEVERVTEHGTPKPFRKFDSVAFGESQSEDEQFENDLETDPPNWQQLVSREVLLGLKPCEIKRQEVINELFYTERAHVRTLKVLDQVFYQRVSREGILSPSELRKIFSNLEDILQLHIGLNEQMKAVRKRNETSVIDQIGEDLLTWFSGPGEEKLKHAAATFCSNQPFALEMIKSRQKKDSRFQTFVQDAESNPLCRRLQLKDIIPTQMQRLTKYPLLLDNIAKYTEWPTEREKVKKAADHCRQILNYVNQAVKEAENKQRLEDYQRRLDTSSLKLSEYPNVEELRNLDLTKRKMIHEGPLVWKVNRDKTIDLYTLLLEDILVLLQKQDDRLVLRCHSKILASTADSKHTFSPVIKLSTVLVRQVATDNKALFVISMSDNGAQIYELVAQTVSEKTVWQDLICRMAASVKEQSTKPIPLPQSTPGEGDNDEEDPSKLKEEQHGISVTGLQSPDRDLGLESTLISSKPQSHSLSTSGKSEVRDLFVAERQFAKEQHTDGTLKEVGEDYQIAIPDSHLPVSEERWALDALRNLGLLKQLLVQQLGLTEKSVQEDWQHFPRYRTASQGPQTDSVIQNSENIKAYHSGEGHMPFRTGTGDIATCYSPRTSTESFAPRDSVGLAPQDSQASNILVMDHMIMTPEMPTMEPEGGLDDSGEHFFDAREAHSDENPSEGDGAVNKEEKDVNLRISGNYLILDGYDPVQESSTDEEVASSLTLQPMTGIPAVESTHQQQHSPQNTHSDGAISPFTPEFLVQQRWGAMEYSCFEIQSPSSCADSQSQIMEYIHKIEADLEHLKKVEESYTILCQRLAGSALTDKHSDKS
notes: LARG (leukemia-associated RhoGEF), human; also called YFP-LARG; wt-LARG; source: HEK293T, transfected, in intact cells; not shown: YFP, N-terminal, kept

What was measured:
Experiment in all cases: FRET or BRET; single-cell FRET in intact HEK293T cells co-transfected with TPα receptor, Gβ1 and Gγ2; donor mTurquoise2 (or CFP) on the Gα subunit, acceptor YFP on the RhoGEF; F535/F480 emission ratio on superfusion with the agonist U-46619 and after its washout (AUC of decay over the 10 min washout); room temperature, buffer pH 7.3
[1] = biological target: T1, Gα13(135) (mTurquoise2 between amino acids 135 and 136) (mouse)
Gα13(135)R128A = biological target: T2, Gα13(135)R128A
Gα12-CFP = Gα12-CFP (UniProt Q03113)
[2] = biological target: T3, Gα13-mTurq2 (mTurquoise2 between amino acids 127 and 128) (mouse)
Gαi-mTurq2 (rat) = Gαi-mTurq2 (rat) (UniProt P10824)

Molecule	binding [1]	binding (Gα13(135)R128A)	binding (Gα12-CFP)	binding [2]	binding (Gαi-mTurq2 (rat))
LARG-G359E (from UniProt Q9NZN5 1-1544)	binds				
eYFP-PDZ-RhoGEF (from UniProt O15085 1-1522)	binds	binds	binds	binds	no binding
B1			binds		no binding

— article PMC9700851, “Interaction kinetics between p115-RhoGEF and Gα13 are determined by unique molecular interactions affecting agonist sensitivity” (Communications Biology, 2022)
